Some of the results follow. These are further read-outs of the screen, such as a control signal, another cell line or another target. No call is given for them. Compounds called inactive in the main read-out are mostly missing here. Potencies come from curve fits of mixed quality, noted in brackets.
Assay: qHTS Assay for Lipid Storage Modulators in Drosophila S3 Cells;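 as to cell number change: cells counted by Cell Tracker Red CMTPX staining in the red channel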
Settings: BODIPY lipid droplet fluorescence, 18-24 h; for cell number change: measured here: cell count max response, cells fed with added oleic acid
How it was run: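 Laser-scanning cytometry quantifies lipid droplet accumulation (500–530 nm total intensity; droplet/cell object ratio) in oleic acid-fed (400 uM added) Drosophila S3 cells treated with a concentration series. 20 uM Triacsin C defined 100% inhibition.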

[1] = measured here: lipid fluorescence (Fed channel) AC50, cells fed with added oleic acid
[2] = measured here: cell number channel AC50, cells fed with added oleic acid

| SMILES | cell number change | AC50 [1] | AC50 [2] |
| --- | --- | --- | --- |
| CC(C)c1ccc(/C=N/n2nnnc2Nc2ccccc2)cc1 | 19% | – | – |
| OC(COc1ccc(OCC(O)CN2CCCCC2)cc1)CN1CCCCC1 (configuration not stated) | -5.11% | 6.51 µM [falling, partial curve, poor fit] | – |
| Cc1ccc(CN2CCN(Cc3ccc(-n4cccn4)cc3)CC2CCO)cc1 (configuration not stated) | 8.1% | 6.51 µM [rising, partial curve] | – |
| Cc1cc(OC(=O)N2CCCCC2)cc(C)c1Cl | -27.8% | 29.1 µM [rising, single point] | – |
| COc1ccc(CCNC(=O)CCCN2C(=O)C(c3ccccc3)Oc3cccnc32)cc1OC (configuration not stated) | 2.12% | – | – |
| CC(C)NC(=O)NC(=O)COC(=O)c1ccc(OC(F)(F)F)cc1 | -24.2% | – | – |
| Cc1cc(=O)oc2c3c(cc(OCC(=O)NCc4ccccc4)c12)OC(C)(C)CC3 | -28.5% | – | – |
| CCOC(=O)CNC(=O)Cn1cnc2sc(C)c(S(=O)(=O)N3CCOCC3)c2c1=O | -7.69% | – | – |
| O=C(CCNS(=O)(=O)c1cccc2nsnc12)Nc1ccc2c(c1)OCCO2 | 58% | – | 14.6 µM [rising, partial curve] |
| Cc1cccc(CC(=O)N2CCCC2)c1 | -9.12% | 2.06 µM [falling, single point] | – |
| COc1ccc(C(=O)NCCS(=O)(=O)N2CCN(Cc3ccccc3)CC2)cc1 | – | 1.84 µM [falling, partial curve] | – |
| CCCCNC(=O)CCn1c(=O)c2ccccc2n(Cc2cc(C)ccc2C)c1=O | -18.7% | 16.4 µM [falling, partial curve] | – |
| C[C@H](NC(=O)[C@@H]1Cc2ccccc2CN1)C(=O)NC1CCCC1 | – | 18.4 µM [falling, single point] | – |
| CC(NC(=O)c1ccc2c(c1)OCCO2)c1ccc(S(N)(=O)=O)cc1 (configuration not stated) | 12.7% | – | – |
| Cc1cc(SCC(=O)c2cccs2)n2nc(C)c(-c3ccccc3)c2n1 | -13.5% | 29.1 µM [falling, single point] | – |
| CN1C(=S)SC(/[N+]([O-])=C\c2cccs2)C1(C)C (configuration not stated) | 36.8% | – | 29.1 µM [rising, single point] |
| COc1ccc(-c2csc(NC(=S)NC(=O)/C=C/c3ccccc3)n2)cc1Br | 20.7% | 0.731 µM [falling, full curve] | 0.92 µM [falling, full curve, poor fit] |
| CCCCCCc1ccc(N2C[C@H](CCCCC)[C@@H](CC(=O)NCc3ccccc3)C2=O)cc1 | 42.4% | – | 29.1 µM [rising, single point] |
| CCC(=O)NC(=S)Nc1ccc(NC(=O)COc2ccc([N+](=O)[O-])cc2)cc1 | 32.3% | – | 25.9 µM [rising, single point] |
| Cc1cccc2c1CC(C)(C)N/C2=C\C(N)=O | -9.88% | – | 0.103 µM [falling, partial curve, poor fit] |
| COc1cccc(C(=O)NCC(=O)OCC(=O)Nc2ncc(Cl)cc2Cl)c1 | – | 6.51 µM [rising, single point] | – |

| SMILES | cell number change | AC50 [1] | AC50 [2] |
| --- | --- | --- | --- |
| COc1ccc(N2CCN(S(=O)(=O)c3c(C)[nH]c(C)c3C(=O)N3CCCCC3)CC2)cc1 | -3.29% | 2.59 µM [falling, single point] | – |
| O=C(Nc1nc(-c2ccccc2)cs1)C1c2ccccc2Oc2ccccc21 | -28.2% | – | – |
| Cc1ccc(OCC(=O)Nc2cc(S(=O)(=O)N3CCCCC3)ccc2C)c([N+](=O)[O-])n1 | -36.5% | 32.6 µM [falling, partial curve] | 32.6 µM [falling, single point] |
| O=[N+]([O-])c1cccc(/C=N/n2cnnc2)c1O | 29.6% | 10.3 µM [rising, partial curve, poor fit] | – |
| CS(=O)(=O)c1ccc(Cl)c(NC(=O)COC(=O)CNC(=O)c2sc3ccccc3c2Cl)c1 | -3.62% | – | – |
| Cc1oc2cc3oc(=O)c(CCC(=O)N[C@H](C(=O)O)C(C)C)c(C)c3cc2c1C | 18.1% | 6.51 µM [rising, partial curve, poor fit] | – |
| C/C(=N\NC(=O)c1nnn(-c2nonc2N)c1CN1CCCCCC1)c1ccc(Br)cc1 | -10.3% | 0.13 µM [rising, full curve] | 6.51 µM [rising, single point] |
| CCc1c(C(=O)Nc2cc(C)ccc2OC)[nH]c(C)c1C(C)=O | – | 5.17 µM [rising, partial curve] | 4.11 µM [rising, partial curve] |
| CNc1nc2c(c(=O)n(C)c(=O)n2C)n1Cc1ccccc1 | -31.4% | – | 7.31 µM [falling, partial curve, poor fit] |
| Cc1ccc2cc(CN(Cc3ccco3)C(=O)c3ccccc3)c(=O)[nH]c2c1C | -10.6% | 1.64 µM [rising, single point] | – |
| Cc1ccc(NC(=O)CCNC(=O)c2ccc(Br)cc2)cc1S(=O)(=O)N1CCCCCC1 | -16.1% | 29.1 µM [falling, single point] | – |
| Cc1cc(C)n(-c2nc3c(c(=O)[nH]c(=O)n3C)n2CC(O)COc2ccccc2)n1 (configuration not stated) | -3.1% | – | – |
| O=C(CSc1nnc(Cc2ccccc2)o1)c1ccc2c(c1)OCO2 | 62.7% | – | 13 µM [rising, partial curve] |
| O=C(Cc1cccs1)N1CCCC(c2nc3c(nnn3Cc3ccc(F)cc3)c(=O)[nH]2)C1 (configuration not stated) | -19.2% | 29.1 µM [falling, single point] | – |
| Cc1ccc(-n2c(C)cc(C(=O)COc3cccnc3[N+](=O)[O-])c2C)cc1 | -21.5% | 29.1 µM [falling, single point] | – |
| CCc1cccc2c(C(=O)COC(=O)c3ccc(O)cc3)c[nH]c12 | -43.2% | 1.46 µM [falling, full curve] | 36.6 µM [falling, partial curve, poor fit] |
| CCNC(=O)CC1C(=O)N(c2ccccc2)C(=O)N1CCc1ccc(OC)cc1 (configuration not stated) | 48.2% | – | 20.6 µM [rising, single point] |
| Cc1cc(C(C2C(=O)CC(C)(C)CC2=O)C2C(=O)CC(C)(C)CC2=O)cc(C)c1OC(F)F | -31.6% | 0.398 µM [falling, single point] | – |
| CCCCn1c(SCC(=O)c2ccc(OC)c(OC)c2)nc2cc(S(N)(=O)=O)ccc21 | 104% | 1.84 µM [rising, partial curve] | 0.651 µM [rising, single point] |
| Cc1cc(C)c2c(=O)n(CC(=O)Nc3ccc(Br)c(C)c3)sc2n1 | -68% | 29.1 µM [falling, single point] | 32.6 µM [falling, partial curve, poor fit] |
| CCOc1cc(N2CCOCC2)c(OCC)cc1NC(=O)CN1C(=O)NC(Cc2ccccc2)C1=O (configuration not stated) | – | 0.731 µM [falling, full curve] | 0.326 µM [falling, partial curve, poor fit] |

One compound at a time, as listed above:
O=C(Cc1cccs1)N1CCCC(c2nc3c(nnn3Cc3ccc(F)cc3)c(=O)[nH]2)C1 (configuration not stated) is listed as cell number change: -19.2%; AC50 [1]: 29.1 µM [falling, single point]
O=C(CCNS(=O)(=O)c1cccc2nsnc12)Nc1ccc2c(c1)OCCO2 is listed as cell number change: 58%; AC50 [2]: 14.6 µM [rising, partial curve]
CCOc1cc(N2CCOCC2)c(OCC)cc1NC(=O)CN1C(=O)NC(Cc2ccccc2)C1=O (configuration not stated) is listed as AC50 [1]: 0.731 µM [falling, full curve]; AC50 [2]: 0.326 µM [falling, partial curve, poor fit]
COc1cccc(C(=O)NCC(=O)OCC(=O)Nc2ncc(Cl)cc2Cl)c1 is listed as AC50 [1]: 6.51 µM [rising, single point]

The list goes on.

| SMILES | cell number change | AC50 [1] | AC50 [2] |
| --- | --- | --- | --- |
| CC(=O)c1cc2c(cc1NS(=O)(=O)c1ccccc1)OCO2 | – | 1.64 µM [rising, partial curve] | 1.16 µM [rising, partial curve] |
| Cc1cc(=O)[nH]c(=S)n1-c1ccccc1 | -87.1% | 29.1 µM [falling, single point] | 2.91 µM [falling, partial curve] |
| O=C(NCc1ccccc1)c1ccc(S(=O)(=O)NCc2ccco2)cc1 | 30.2% | – | – |
| COc1ccc2c(c1)c(=O)c(C(=O)c1ccc(F)cc1)cn2CC(=O)Nc1ccc(F)cc1 | 8.17% | 10.3 µM [rising, partial curve, poor fit] | – |
| CCOC(=O)CSC(CC)C(=O)Nc1nnc(CC)s1 (configuration not stated) | -101% | 23.1 µM [falling, single point] | 9.2 µM [falling, partial curve] |
| Cc1ccccc1C(=O)N1CCCN(C(=O)c2ccccc2C)CC1 | 1.81% | 25.9 µM [falling, single point] | – |
| CN1CCN(S(=O)(=O)c2cccc(C(=O)N(C)Cc3c(F)cccc3Cl)c2)CC1 | -8.67% | 20.6 µM [rising, single point] | – |
| c1ccc(CN2CCC(Nc3ncnc4sccc34)CC2)cc1 | 24.8% | 0.231 µM [falling, full curve, poor fit] | 4.11 µM [rising, full curve, poor fit] |
| Cc1ccc(NC(=S)N2CCCC2)cc1C | -2.31% | – | – |
| COc1ccc(-n2c(C)cc(C(=O)CN3C(=O)c4ccccc4C3=O)c2C)cc1 | -15.9% | 29.1 µM [falling, single point] | – |
| Cc1onc(-c2ccccc2)c1C(=O)Nc1ccccc1C#N | 19.7% | – | – |
| Cc1ccc(S(=O)(=O)N2CCC(C(=O)C3C(=O)CCCC3=O)CC2)cc1 | -25.1% | 5.8 µM [falling, full curve, poor fit] | – |
| CC(C1CC1)N(Cc1ccccc1)C(=O)NC(=O)c1ccccc1 (configuration not stated) | 20.8% | – | – |
| CC(C)(C)C1CCC(C(=O)Nc2cccnc2)CC1 (configuration not stated) | -5.65% | – | – |
| O=C(CCNS(=O)(=O)c1ccc(Br)cc1)N1CCCCCCC1 | -27% | 23.1 µM [falling, partial curve] | – |
| CCN(CC)CCNS(=O)(=O)c1ccc(/C=C/C(=O)O)cc1 | – | 3.26 µM [rising, single point] | – |
| CC(C)CC(=O)NN1CCCCC1 | -27.2% | 20.6 µM [falling, partial curve] | – |
| O=C(c1ccc(CN2CCOCC2)cc1)N1CCN(Cc2ccccc2)CC1 | 10.8% | – | – |
| Cc1noc(/C=C/N(C)C)c1S(=O)(=O)N1CCCC(C(=O)NCc2ccc(F)cc2)C1 (configuration not stated) | 9.53% | 4.61 µM [rising, full curve, poor fit] | – |

From PubChem BioAssay AID2685 (National Center for Advancing Translational Sciences (NCATS), 2010)
